Source: PubChem BioAssay AID1117319 (Southern Research Institute, 2015)
In all, about 260,000 compounds went through this assay and about 1,500 (0.58%) were called active.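 How the source made its calls: active means inhibition above a set limit at one or more doses, reproduced on every date tested; inconclusive means results disagree between test dates, or hit never tested in dose response; inactive means the rest.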 Inconclusive means that the source gave no clear call.

By UniProt entry, the sequences of proteins in these tests, tags left out. Where a name states a change or a piece, a line headed by the entry shows the natural chain unless it says otherwise.
UniProt P69720: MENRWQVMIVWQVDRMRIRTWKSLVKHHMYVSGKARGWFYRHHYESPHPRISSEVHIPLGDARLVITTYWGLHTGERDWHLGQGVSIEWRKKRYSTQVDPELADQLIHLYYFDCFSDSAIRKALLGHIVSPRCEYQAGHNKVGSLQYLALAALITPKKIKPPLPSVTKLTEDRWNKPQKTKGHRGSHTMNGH
UniProt P69721: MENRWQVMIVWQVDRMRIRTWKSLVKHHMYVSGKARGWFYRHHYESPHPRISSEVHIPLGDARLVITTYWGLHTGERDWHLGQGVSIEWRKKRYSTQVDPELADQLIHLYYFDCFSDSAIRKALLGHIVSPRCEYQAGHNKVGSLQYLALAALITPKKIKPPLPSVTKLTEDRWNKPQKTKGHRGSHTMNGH
UniProt P69722: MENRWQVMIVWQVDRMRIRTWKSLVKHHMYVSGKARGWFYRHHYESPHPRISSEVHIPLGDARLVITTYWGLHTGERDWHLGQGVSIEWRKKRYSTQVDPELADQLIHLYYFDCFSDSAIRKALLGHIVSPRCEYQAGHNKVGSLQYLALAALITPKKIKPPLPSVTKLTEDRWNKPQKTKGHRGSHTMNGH
UniProt P69723: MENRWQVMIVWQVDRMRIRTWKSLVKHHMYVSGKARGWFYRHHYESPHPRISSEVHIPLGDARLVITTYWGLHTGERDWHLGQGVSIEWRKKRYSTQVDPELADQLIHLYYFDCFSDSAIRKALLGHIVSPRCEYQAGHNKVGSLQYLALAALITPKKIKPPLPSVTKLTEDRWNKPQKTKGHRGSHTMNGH
UniProt Q9HC16: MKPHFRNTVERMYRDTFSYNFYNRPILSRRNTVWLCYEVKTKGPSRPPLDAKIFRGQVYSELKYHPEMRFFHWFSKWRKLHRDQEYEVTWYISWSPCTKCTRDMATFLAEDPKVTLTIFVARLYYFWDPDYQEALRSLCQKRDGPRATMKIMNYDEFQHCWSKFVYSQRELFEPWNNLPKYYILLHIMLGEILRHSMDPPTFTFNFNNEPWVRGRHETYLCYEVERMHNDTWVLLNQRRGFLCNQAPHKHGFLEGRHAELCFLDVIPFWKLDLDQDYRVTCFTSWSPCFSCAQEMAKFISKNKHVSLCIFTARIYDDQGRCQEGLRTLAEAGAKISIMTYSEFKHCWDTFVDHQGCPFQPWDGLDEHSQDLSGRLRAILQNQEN

molecular target: Virion infectivity factor (Human immunodeficiency virus type 1 group M subtype B (isolate BH10)) + Virion infectivity factor (Human immunodeficiency virus type 1 group M subtype B (isolate BRU/LAI)) + Virion infectivity factor (Human immunodeficiency virus type 1 group M subtype B (isolate PCV12)) + Virion infectivity factor (Human immunodeficiency virus type 1 group M subtype B (isolate HXB2)) + DNA dC->dU-editing enzyme APOBEC-3G (Homo sapiens) (UniProt P69720+P69721+P69722+P69723+Q9HC16); test: inhibitors of Vif binding to APOBEC3G peptide, primary screen, biochemical, TR-FRET, GST-Vif 1-94, biotin-A3G peptide, dose response retest (AID 1117319); conditions: active compounds read high;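 further: Vif residues 1-94 fused to GST binding biotinylated APOBEC3G peptide 110-148; 0% = full assay without inhibitor and 100% = GST in place of GST-Vif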

Row | Compound | inhibition
1 | C/C(=N\Nc1ccccc1)c1c(O)[nH]c(=O)[nH]c1=O | inconclusive: 38.6%
2 | CCOc1ccccc1N=C1SCCCN1C | inconclusive: 42.5%
3 | O=c1[nH]c(=O)n(Cc2ccco2)c(O)c1C=NCc1ccco1 | inconclusive: 52.1%
4 | C=Cn1ccnc1P(=S)(c1cc(N(CC)CC)ns1)c1nccn1C=C | inconclusive: 56.6%
5 | O=C1NC(=O)C2(Cc3ccccc3N3CCCC32)C(=O)N1c1ccccc1 (stereo not drawn) | inconclusive: 42.9%
6 | COP(=O)(OC)C1(O)C(=O)Nc2ccc(Br)cc21 (stereo not drawn) | inconclusive: 36.3%
7 | Cc1ccc(N2C(=O)NC(=O)/C(=C/c3cnc(-c4ccccc4)nc3)C2=O)cc1C | inconclusive: 39.6%
8 | CC(=O)c1ccc2c(c1)C1C(Cl)C(Sc3ccccc3[N+](=O)[O-])CC1C(c1ccccc1[N+](=O)[O-])N2 (stereo not drawn) | inconclusive: 62.6%
9 | CN1CCN(c2c[nH]c(=O)[nH]c2=O)CC1 | inconclusive: 33.5%
10 | COc1cc2c(cc1O)CC1c3c(cc(O)c(OC)c3-2)CCN1C (stereo not drawn) | inconclusive: 34.6%
11 | CCOP(=O)(OCC)/C(C#N)=C/c1ccoc1 | inconclusive: 49.9%
12 | CN(C(=O)Oc1cccc2cccnc12)c1ccccc1 | inconclusive: 49.2%
13 | CC(=O)c1cn(CCCOc2ccccc2)c2ccccc12 | inconclusive: 62.7%
14 | CN(C)c1ccc(C=C2C(=O)NC(=O)NC2=O)cc1[N+](=O)[O-] | inconclusive: 39.8%
15 | CCN1C(=O)C(=Cc2ccc(C)s2)C(=O)N(CC)C1=S | inconclusive: 47.5%
16 | O=C1NC(=O)N(Cc2ccco2)C(=O)/C1=C\c1ccc(-c2ccc(F)cc2)o1 | inconclusive: 56%
17 | NC(N)=N/N=C/c1cn(-c2ccccc2)nc1-c1cccs1 | inconclusive: 33.1%
18 | Cc1nn(Cc2ccccc2Cl)c(Cl)c1C(=O)OC(C(=O)NC(N)=O)C(C)C (stereo not drawn) | inconclusive: 39.1%
19 | CC[N+](C)(CC)CCCCOc1ccc2c(c1)C(=O)c1cc(OCCCC[N+](C)(CC)CC)ccc1-2 | inconclusive: 34%
20 | O=C(CCCn1c(=O)[nH]c2cc(Cl)ccc2c1=O)N1CCC2(CC1)OCCO2 | inconclusive: 35.8%
21 | CC(C)COc1ccc(C2(C#N)CC[N+](C)(C)CC2)cc1 | inconclusive: 46.5%

Row | Compound | inhibition
22 | c1ccc(CN2CCN(Cc3ccc4c(c3)OCCO4)CC2)cc1 | inconclusive: 40.8%
23 | O=c1[nH]c(=O)n(-c2ccc(Cl)cc2)c(O)c1C=Nc1ccc(S(=O)(=O)Nc2nccs2)cc1 | inconclusive: 50.2%
24 | CCCCNC(=O)Nc1ccc(C(O)(C(=O)OCC)C(F)(F)F)cc1 (stereo not drawn) | inconclusive: 13.8%
25 | CCN(c1ccc(C(O)(C(=O)OC)C(F)(F)F)cc1)S(=O)(=O)c1ccc(C)cc1 (stereo not drawn) | inconclusive: 39.5%
26 | COc1ccc(CCNC(=O)c2c(N)n(CCN3CCOCC3)c3nc4ccccc4nc23)cc1OC | inconclusive: 41.2%
27 | O=C1N(CN2CCOCC2)c2ccccc2C1(O)c1c[nH]c2ccccc12 (stereo not drawn) | inconclusive: 46.5%
28 | CN1C(=O)C(=Cc2ccc(N3CCOCC3)o2)C(=O)N(C)C1=S | inconclusive: 61.1%
29 | CC(=O)N1CCN(c2ccc(N=Cc3c(O)n(-c4ccc(Cl)cc4)c(=O)[nH]c3=O)cc2)CC1 | inconclusive: 36.5%
30 | CC(=O)Nc1ccc([As](=O)(O)c2ccc([N+](=O)[O-])cc2)cc1 | inconclusive: 40.9%
31 | CCN1C(=O)/C(=C/c2ccc3c(c2)CCN3CCCCl)C(=O)NC1=S | inconclusive: 44.5%
32 | CCOC(=O)C(NC(C)=O)C(OC(C)=O)c1cccc(N(CCCl)CCCl)c1 (stereo not drawn) | inconclusive: 49.3%
33 | Cn1c(O)c(C=NCCCNC2CCCCC2)c(=O)n(C)c1=O | inconclusive: 44.9%
34 | CN1C(=O)C(=Cc2ccc(N3CCCCCC3)cc2)C(=O)N(C)C1=O | inconclusive: 33.9%
35 | O=c1c2ccccc2nc(/C=C/c2ccc(F)cc2)n1-c1ccccn1 | inconclusive: 38.1%
36 | O=C1/C(=C/c2ccc3c(c2)OCO3)N2CCC1CC2 | inconclusive: 34.5%
37 | Cc1ccccc1N1C(=O)NC(=O)/C(=C\c2cc(Br)c(N3CCOCC3)o2)C1=O | inconclusive: 39.6%
38 | CC(C)(C)c1nc(N2CCN(C(=O)c3ccco3)CC2)c2nnn(Cc3ccccc3Cl)c2n1 | inconclusive: 33.7%
39 | CCC(CC)C(=O)NC1CCSC1=O (stereo not drawn) | inconclusive: 46.3%
40 | CN1C(=O)C(Cc2cccc3ccccc23)C(=O)N(C)C1=O | inconclusive: 55%
41 | O=C1NC(=O)N(c2ccc3c(c2)OCO3)C(=O)/C1=C/c1ccc(N2CCCCC2)o1 | inconclusive: 37%
42 | COc1ccc(CCN(C)Cc2c(F)cccc2F)cc1OC | inconclusive: 49.8%

Row | Compound | inhibition
43 | CCCCC(=O)N/N=C/c1c(O)n(Cc2ccco2)c(=O)[nH]c1=O | inconclusive: 50%
44 | CN(C)CCCN=Cc1c(O)n(CCc2ccccc2)c(=O)[nH]c1=O | inconclusive: 37.9%
45 | CCC(COC(=O)NC)NC(=O)Oc1ccccc1 (stereo not drawn) | inconclusive: 45.7%
46 | O=c1[nH]c(=O)n(Cc2ccccc2)c(O)c1C=NCCCn1ccnc1 | inconclusive: 36.3%
47 | CNC(=O)Oc1cccc(-c2cn3cc(OC(=O)NC)ccc3n2)c1 | inconclusive: 50.7%
48 | CC(=C1C(=O)c2ccccc2C1=O)N1CCN(CCN=Cc2c(O)n(C)c(=O)n(C)c2=O)CC1 | inconclusive: 56.6%
49 | O=C1NC(=O)N(Cc2ccco2)C(=O)/C1=C\c1cccn1CCOc1ccc(Cl)cc1 | inconclusive: 37.9%
50 | COc1ccccc1-n1c(O)c(/C=N/N2CCCCC2)c(=O)n(-c2ccccc2OC)c1=S | inconclusive: 45.9%
51 | Cc1cc(/C=C2\C(=O)NC(=O)N(c3ccc(F)cc3)C2=O)c(C)n1-c1cccc(C(=O)O)c1 | inconclusive: 33.5%
52 | Cn1c(=O)cc(OCC(=O)N2CCN(Cc3ccc4c(c3)OCO4)CC2)c2ccccc21 | inconclusive: 38.3%
53 | Cc1cc(OCc2nn[nH]n2)c2c3c(c(=O)oc2c1)CCCC3 | inconclusive: 33.6%
54 | N/C(=N/[N+](=O)[O-])N1CCN(C(=O)c2ccc(Cl)cc2)CC1 | inconclusive: 53.6%
55 | CC(C)c1ccc(N2C(=O)NC(=O)/C(=C\c3cnc(-c4ccccc4)nc3)C2=O)cc1 | inconclusive: 43%
56 | C/C(=N/OC(=O)N(C)C)c1ncc(C(F)(F)F)cc1N1CCOCC1 | inconclusive: 34.4%
57 | CCC(=NCCN1CCOCC1)c1c(O)n(-c2ccccc2C)c(=O)[nH]c1=O | inconclusive: 46.8%
58 | Fc1ccccc1CCNCc1ccccc1 | inconclusive: 40.5%
59 | O=C1/C(=C/c2cc([N+](=O)[O-])ccc2Cl)N2CCC1CC2 | inconclusive: 38.3%
60 | CCC(=O)O[C@@H]1[C@@H](OC(C)=O)[C@@]2(O)C(C[C@H](O)C2(C)C)[C@](C)(O)[C@H]2CC[C@@H]3[C@@H](O)[C@]12C[C@@]3(C)O (stereo partly drawn) | inconclusive: 37.2%
61 | CCCCCn1c(N)c(C(=O)NCCN2CCOCC2)c2nc3ccccc3nc21 | inconclusive: 35.8%
62 | CN(C)C(=O)Oc1cccc2c(OC(=O)N(C)C)cccc12 | inconclusive: 38.5%
63 | CCOC(=O)C(O)(c1ccc(N=c2ccccn2C)cc1)C(F)(F)F (stereo not drawn) | inconclusive: 60%

22 neighbouring compounds already listed:
Row | Compound | inhibition
41 | O=C1NC(=O)N(c2ccc3c(c2)OCO3)C(=O)/C1=C/c1ccc(N2CCCCC2)o1 | inconclusive: 37%
42 | COc1ccc(CCN(C)Cc2c(F)cccc2F)cc1OC | inconclusive: 49.8%
43 | CCCCC(=O)N/N=C/c1c(O)n(Cc2ccco2)c(=O)[nH]c1=O | inconclusive: 50%
44 | CN(C)CCCN=Cc1c(O)n(CCc2ccccc2)c(=O)[nH]c1=O | inconclusive: 37.9%
45 | CCC(COC(=O)NC)NC(=O)Oc1ccccc1 (stereo not drawn) | inconclusive: 45.7%
46 | O=c1[nH]c(=O)n(Cc2ccccc2)c(O)c1C=NCCCn1ccnc1 | inconclusive: 36.3%
47 | CNC(=O)Oc1cccc(-c2cn3cc(OC(=O)NC)ccc3n2)c1 | inconclusive: 50.7%
48 | CC(=C1C(=O)c2ccccc2C1=O)N1CCN(CCN=Cc2c(O)n(C)c(=O)n(C)c2=O)CC1 | inconclusive: 56.6%
49 | O=C1NC(=O)N(Cc2ccco2)C(=O)/C1=C\c1cccn1CCOc1ccc(Cl)cc1 | inconclusive: 37.9%
50 | COc1ccccc1-n1c(O)c(/C=N/N2CCCCC2)c(=O)n(-c2ccccc2OC)c1=S | inconclusive: 45.9%
51 | Cc1cc(/C=C2\C(=O)NC(=O)N(c3ccc(F)cc3)C2=O)c(C)n1-c1cccc(C(=O)O)c1 | inconclusive: 33.5%
52 | Cn1c(=O)cc(OCC(=O)N2CCN(Cc3ccc4c(c3)OCO4)CC2)c2ccccc21 | inconclusive: 38.3%
53 | Cc1cc(OCc2nn[nH]n2)c2c3c(c(=O)oc2c1)CCCC3 | inconclusive: 33.6%
54 | N/C(=N/[N+](=O)[O-])N1CCN(C(=O)c2ccc(Cl)cc2)CC1 | inconclusive: 53.6%
55 | CC(C)c1ccc(N2C(=O)NC(=O)/C(=C\c3cnc(-c4ccccc4)nc3)C2=O)cc1 | inconclusive: 43%
56 | C/C(=N/OC(=O)N(C)C)c1ncc(C(F)(F)F)cc1N1CCOCC1 | inconclusive: 34.4%
57 | CCC(=NCCN1CCOCC1)c1c(O)n(-c2ccccc2C)c(=O)[nH]c1=O | inconclusive: 46.8%
58 | Fc1ccccc1CCNCc1ccccc1 | inconclusive: 40.5%
59 | O=C1/C(=C/c2cc([N+](=O)[O-])ccc2Cl)N2CCC1CC2 | inconclusive: 38.3%
60 | CCC(=O)O[C@@H]1[C@@H](OC(C)=O)[C@@]2(O)C(C[C@H](O)C2(C)C)[C@](C)(O)[C@H]2CC[C@@H]3[C@@H](O)[C@]12C[C@@]3(C)O (stereo partly drawn) | inconclusive: 37.2%
61 | CCCCCn1c(N)c(C(=O)NCCN2CCOCC2)c2nc3ccccc3nc21 | inconclusive: 35.8%
62 | CN(C)C(=O)Oc1cccc2c(OC(=O)N(C)C)cccc12 | inconclusive: 38.5%

Later entries:

Row | Compound | inhibition
64 | CCCCn1c(=O)c(C=Nc2ccc(Cl)cc2)c(O)n(Cc2ccco2)c1=O | inconclusive: 41.2%
65 | NCCCCC(NC(=O)C1CCCN1C(=O)C1CSSCC(N)C(=O)NC(Cc2ccc(O)cc2)C(=O)NC(Cc2ccccc2)C(=O)NC(CCC(N)=O)C(=O)NC(CC(N)=O)C(=O)N1)C(=O)NCC(N)=O (stereo not drawn) | inconclusive: 38.5%
66 | CCCC(=O)OCC[N+](C)(C)C | inconclusive: 38.6%
67 | O=C1NC(=O)N(Cc2ccc(F)cc2)C(=O)/C1=C\c1ccc(N2CCCC2)cc1 | inconclusive: 40.5%
68 | CCC(CO)NC(=O)C1C=C2c3cccc4[nH]cc(c34)CC2N(C)C1 (stereo not drawn) | inconclusive: 64.2%
69 | CCN1CCN(c2ccc(N)cc2)CC1 | inconclusive: 56.5%
70 | O=P1(NCCCn2cc[n+](Cc3nc4ccccc4[nH]3)c2)C=C(c2ccccc2)OC(c2ccccc2)=C1 | inconclusive: 37.7%
71 | O=C1NC(=O)N(c2ccc(F)cc2)C(=O)/C1=C/c1ccc2c(c1)CCCN2Cc1ccccc1 | inconclusive: 38.9%
72 | CC(=O)N1CC(=O)Nc2ccc(Cl)cc2C1c1ccc(F)cc1 (stereo not drawn) | inconclusive: 36.2%
73 | Cc1cccc(C(=O)Nc2ccc(Cl)cc2C(=O)c2ccccc2)c1 | inconclusive: 38%
74 | COc1ccccc1CCNCc1cc2c(cc1[N+](=O)[O-])OCO2 | inconclusive: 51.1%
75 | CC(C)CNC(=O)c1c(N)n(Cc2ccco2)c2nc3ccccc3nc12 | inconclusive: 54.9%
76 | COc1cccc(CNCCc2c[nH]c3ccccc23)c1OC | inconclusive: 34.5%
77 | Cc1cccc(N2C(=O)NC(=O)/C(=C\c3cc(C)n(-c4sc5c(c4C#N)CCCC5)c3C)C2=O)c1C | inconclusive: 46.4%
78 | Cc1ccc(-n2nc(C)c3c2NC(=O)CSC3c2ccc3c(c2)OCO3)cc1 (stereo not drawn) | inconclusive: 36.1%
79 | C=CCN1C(=O)/C(=C/c2cccs2)C(=O)NC1=S | inconclusive: 37.6%
80 | CCC(C)N1C(=O)/C(=C\c2cc3c4c(c2)CCCN4CCC3)C(=O)NC1=S (stereo not drawn) | inconclusive: 39.7%
81 | Cc1ccccc1NC1=NCC(C)S1 (stereo not drawn) | inconclusive: 51.7%
82 | COc1ccccc1-n1c(O)c(/C=N/NC(=S)Nc2ccccc2)c(=O)[nH]c1=S | inconclusive: 37.4%
83 | CCCCOc1ccc(CC2C(=O)N(C)C(=O)N(C)C2=O)cc1 | inconclusive: 38.8%
